Data as given in PubChem BioAssay AID504764 (Drosophila RNAi Screening Center, 2011).
In all, the deposit lists about 22,000 reagents; below is a random part of those with a known target gene and a result. Of all reagents, 403 (1.9%) got an active call. 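Unnormalised raw counts per well; ratio z-scores behind the hit calls and whether each hit raises or lowers signal are not deposited.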 Not stated in the record: the amount of reagent.

Screen: 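Genome-wide screen for regulators of Notch-driven gene expression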 (primary screen)
System: Drosophila Kc167 cells
Knock-down reagent: long dsRNA against Drosophila genes
Time to read-out: about 5 days (4 days dsRNA, then 24 h after transfection)
Conditions: transfection of constitutively active membrane-tethered Notch lacking the extracellular domain, read 24 h later
Measured: 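Light from a Notch-responsive E(spl)m3 luciferase reporter under active Notch, with control-promoter and no-Notch reporter wells to normalise; raw counts from paired wells a and b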
Scale: induced reporter light, run 1, well a and induced reporter light, run 1, well b: higher = more light from the Notch target reporter with active Notch; control promoter light, run 1, well a and control promoter light, run 1, well b: higher = more light from the viral control promoter (cell number, transfection, viability); uninduced reporter light, run 1, well a: higher = more light from the Notch target reporter without active Notch
Rule for the call: 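Hit if the duplicate-averaged log2 ratio of induced to control-promoter light gives a plate-wise z beyond ±2, or induced to uninduced beyond ±1.8; weak-control or discordant-duplicate wells dropped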
Meaning of the calls: active = modifier hit (raised or lowered Notch signal); inactive = not a hit

no.	gene	DRSC id	induced reporter light, run 1, well a	induced reporter light, run 1, well b	control promoter light, run 1, well a	control promoter light, run 1, well b	uninduced reporter light, run 1, well a	call
1	CG9205	DRSC08642	1.27e5	1.42e5	1.92e5	2.87e5	12735	inactive
2	CG8237	DRSC07119	1.77e5	1.59e5	1.71e5	1.49e5	13930	inactive
3	CG11699	DRSC19419	1.22e5	1.18e5	2.02e5	2.10e5	8495	inactive
4	tws	DRSC12767	1.48e5	1.31e5	1.24e5	1.17e5	10415	inactive
5	tws	DRSC17092	89160	92120	1.23e5	93955	8038	inactive
6	CG15729 (retired record)	DRSC19695	84860	1.02e5	1.55e5	1.39e5	6470	inactive
7	Osi6	DRSC12128	38565	43080	43280	29540	2615	inactive
8	OSCP1	DRSC06304	1.04e5	1.01e5	1.17e5	1.30e5	9115	inactive
9	CG6144	DRSC02934	2.31e5	1.84e5	2.66e5	3.28e5	13495	inactive
10	CG12947	DRSC14575	82485	1.18e5	1.04e5	74445	9250	inactive
11	CG4734	DRSC06885	1.20e5	92975	1.22e5	95555	8738	inactive
12	CR42545	DRSC03709	56180	59485	55065	52735	3095	inactive
13	CG31213	DRSC14312	2.03e5	1.89e5	2.14e5	2.21e5	16215	inactive
14	CG31213	DRSC15647	2.25e5	1.83e5	2.12e5	2.56e5	12900	inactive
15	Vha16-2	DRSC10873	1.31e5	1.34e5	1.84e5	1.78e5	8265	inactive
16	NijB	DRSC09850	1.79e5	2.11e5	2.63e5	3.08e5	13725	inactive
17	CG6441	DRSC02957	1.41e5	1.36e5	1.68e5	1.60e5	7538	inactive
18	CG13492	DRSC04137	48080	65630	52765	58385	2880	inactive
19	Ttc30	DRSC01300	1.08e5	81150	1.43e5	1.24e5	8160	inactive
20	Ttc30	DRSC02818	1.48e5	1.54e5	1.51e5	1.44e5	12020	inactive

A portion of the results above:
no.	gene	DRSC id	induced reporter light, run 1, well a	induced reporter light, run 1, well b	control promoter light, run 1, well a	control promoter light, run 1, well b	uninduced reporter light, run 1, well a	call
1	CG9205	DRSC08642	1.27e5	1.42e5	1.92e5	2.87e5	12735	inactive
2	CG8237	DRSC07119	1.77e5	1.59e5	1.71e5	1.49e5	13930	inactive
